Results from PubChem BioAssay AID504467 (National Center for Advancing Translational Sciences (NCATS), 2011).
The whole screen tested about 330,000 compounds, of which about 7,700 (2.3%) were called active. Inconclusive results, whose numbers are uncertain, are shown with a selection of clear calls. Calls follow the shape of the dose curve; as a rule, active = well fitted inhibition curve with a large enough effect; inconclusive = small, poorly fitted or top-dose-only effect, or effect the other way; inactive = flat fitted curve, though single readings scatter. A potency beside an inconclusive call is a rough fit, not a confirmed value.

Assay: qHTS screen for small molecules that inhibit ELG1-dependent DNA repair in human embryonic kidney (HEK293T) cells expressing luciferase-tagged ELG1; also: nearly all actives have a fitted effect of over 55% in size
Settings: HEK293T ELG1-luciferase reporter, luminescence, 16 h, DNA damage induced by 5-fluorouridine; activity change, negative = inhibition: at 46.1 µM (top of the series)
Method in brief: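 5-Fluorouridine DNA damage + compound/DMSO, 2,000 cells/well, 16 h, 37 °C/5% CO2. ONE-Glo, 30 min RT, luminescence. Readout = decrease in reporter signal.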
% is scaled to controls: 0 for no effect and ±100 for the full control effect; potency is read from the fitted curve at half-maximal effect.

Row | Structure (SMILES) | Potency | activity change, negative = inhibition
1 | Cc1ccc(-c2nn(-c3ccccc3)cc2/C=N/NC(=O)c2ccncc2)o1 | inconclusive: 5.17 µM [activator, partial curve] | 
2 | COc1cc(C(=O)OCC(=O)N(C)C)cc(NC(=O)c2ccco2)c1OC | inconclusive: 16.4 µM [inhibitor, partial curve, poor fit] | 
3 | Cc1ccc2c(Cl)c(C(=O)Nc3ccc4c(c3)OCO4)sc2c1 | inconclusive: 2.91 µM [activator, full curve] | 
4 | COc1ccc(Cl)c(N2CCN(CCCNC(=O)Nc3ccc(C)cc3)CC2)c1 |  | inactive: -24%
5 | Cc1ccc2c(c1)C(=O)CCN2 | inconclusive: 29.1 µM [activator, single point] | 
6 | CC(OC(=O)c1cc(=O)[nH]c2ccccc12)C(=O)Nc1ccc(Cl)cn1 (stereo unspecified) | inconclusive: 11.6 µM [activator, partial curve, poor fit] | 
7 | Cc1ccc2cc(NC(=O)c3cccc(F)c3)ccc2n1 | inconclusive: 2.59 µM [activator, partial curve] | 
8 | COc1cc(OC)c(NS(=O)(=O)c2cc(C(=O)OC(C)C(=O)NC3CC3)c(Cl)cc2Cl)cc1Cl (stereo unspecified) | inconclusive: 9.2 µM [inhibitor, partial curve, poor fit] | 
9 | CC(=O)N1CCc2cc(S(=O)(=O)NC(C(=O)Nc3ccc4c(c3)OCCO4)C(C)C)ccc21 (stereo unspecified) | inconclusive: 6.51 µM [activator, single point] | 
10 | CCOC(=O)c1c(C)[nH]c(C)c1C(=O)COc1ccc(NC(=O)c2ccco2)cc1 | inconclusive: 13 µM [inhibitor, single point] | 
11 | CCOc1ccc(C(=O)OCC(=O)Nc2cccnc2Cl)cc1OCC | inconclusive: 29.1 µM [inhibitor, single point] | 
12 | CCOc1ccccc1CNC(=O)C1CCN(c2nn3c(=O)cc(C)nc3s2)CC1 |  | inactive: 6.28%
13 | Cc1cccc(C)c1NC(=O)CN(C)C(=O)c1ccccc1Sc1ccccc1C#N |  | inactive: 0.799%
14 | COc1ccccc1-c1c(C)nn2c(N3CCC(C)CC3)cc(C)nc12 | inconclusive: 23.1 µM [inhibitor, single point] | 
15 | CC(=O)Nc1ccc(NC(=O)C2CCCCN2S(=O)(=O)c2ccc(C(C)(C)C)cc2)cc1 (stereo unspecified) | inconclusive: 23.1 µM [inhibitor, partial curve, poor fit] | 
16 | CCCc1cc(C(=O)N2CCN(C(c3ccccc3)c3ccccc3)CC2)no1 | inconclusive: 5.17 µM [inhibitor, partial curve] | 
17 | CC(c1ccccc1)N1CCn2c(nc3cc(NC(=O)c4cccs4)ccc32)C1 (stereo unspecified) | inconclusive: 29.1 µM [inhibitor, single point] | 
18 | O=C(Nc1ccc(CN2CCOCC2)cc1)c1cccs1 | inconclusive: 18.4 µM [activator, partial curve, poor fit] | 
19 | Cc1ccc(SCC(=O)NNC(=O)c2ccccc2)c(C)c1 |  | inactive: -4.1%
20 | CCOC(=O)c1ccc(N2C(=O)c3n[nH]c(C)c3C2c2ccc(OC)cc2)cc1 (stereo unspecified) | inconclusive: 18.4 µM [inhibitor, single point] | 
21 | COCCOC(=O)C(C#N)c1nc2ccccc2nc1N1CCN(Cc2ccccc2)CC1 (stereo unspecified) | inconclusive: 25.9 µM [inhibitor, partial curve, poor fit] | 

Two of the compounds above, with each value named:
COc1cc(C(=O)OCC(=O)N(C)C)cc(NC(=O)c2ccco2)c1OC
  Potency: inconclusive: 16.4 µM [inhibitor, partial curve, poor fit]
Cc1ccc2c(Cl)c(C(=O)Nc3ccc4c(c3)OCO4)sc2c1
  Potency: inconclusive: 2.91 µM [activator, full curve]

More records follow:

Row | Structure (SMILES) | Potency | activity change, negative = inhibition
22 | COc1ccc(-c2noc(CN(C(=O)c3ccoc3C)C(C)C)n2)cc1 | inconclusive: 23.1 µM [inhibitor, partial curve, poor fit] | 
23 | CCCCN1CCN=C1Nc1ccccc1 |  | inactive: 28.8%
24 | Cc1c(C(=O)O)oc2ccc(S(=O)(=O)NCc3ccccc3)cc12 | active: 9.2 µM | 
25 | Cn1nnnc1Sc1ncnc2scc(-c3ccc(C#N)cc3)c12 | inconclusive: 11.6 µM [inhibitor, partial curve, poor fit] | 
26 | O=C1/C(=C\c2ccc3ccccc3c2)CCCc2ccccc21 | inconclusive: 5.17 µM [activator, full curve] | 
27 | Cc1ccccc1OCc1nnc(SCC(=O)Nc2ccc3nc(SCC(=O)Nc4ccccc4)sc3c2)n1C | inconclusive: 1.84 µM [inhibitor, partial curve, poor fit] | 
28 | CCCCN(CC)CCCNC(=O)CC1Oc2ccccc2NC1=O (stereo unspecified) | inconclusive: 23.1 µM [activator, partial curve, poor fit] | 
29 | NC(=O)Cn1c(=O)n(-c2ccccc2)c(=O)c2oc3ccccc3c21 |  | inactive: -1.06%
30 | Cc1c(NC(=S)N/N=C/c2cc([N+](=O)[O-])ccc2O)c(=O)n(-c2ccccc2)n1C | inconclusive: 16.4 µM [inhibitor, single point] | 
31 | COc1ccc(NS(=O)(=O)c2ccc(C)c(C(=O)OC(C)C(=O)N3CCOCC3)c2)cc1 (stereo unspecified) |  | inactive: -10.7%
32 | CC1(C)OC(=O)C(=Cc2ccc(-c3ccc(S(N)(=O)=O)cc3)o2)C(=O)O1 | inconclusive: 25.9 µM [activator, single point] | 
33 | O=C(OCC(=O)N1CCOCC1)c1cccc(F)c1 | inconclusive: 20.6 µM [activator, partial curve] | 
34 | COC(=O)c1ccc(NC(=O)c2nc(S(=O)(=O)Cc3cccc(C)c3)ncc2Cl)cc1 | active: 16.4 µM | 
35 | Cc1cc(F)ccc1S(=O)(=O)N1CCCOC1CNC(=O)C(=O)NCCCN1CCOCC1 (stereo unspecified) |  | inactive: 7.79%
36 | CCCCC1(C)NC(=O)c2c(C)sc(C(=O)OCC)c2N1 (stereo unspecified) |  | inactive: -13.7%
37 | CC(C)n1c(=S)[nH]c2c1c(=O)[nH]c(=O)n2C | inconclusive: 0.184 µM [inhibitor, full curve, poor fit] | 
38 | N/C(=N\OC(=O)c1ccc2c(c1)OCO2)c1ccc(Cl)cc1 | inconclusive: 10.3 µM [activator, partial curve] | 
39 | COc1ccc(C)cc1S(=O)(=O)N1CC(C)OC(C)C1 (stereo unspecified) | inconclusive: 25.9 µM [inhibitor, single point] | 
40 | O=C(Nc1ccc(SC(F)F)cc1)c1ccc(F)cc1 | inconclusive: 2.59 µM [activator, partial curve] | 
41 | C/C(=C/CCC(C)C1CCC2(C)C3CCC4C(C)(C)C(=O)CCC4(C)C3=CCC12C)C(=O)O (stereo unspecified) | inconclusive: 13 µM [inhibitor, partial curve] | 
